Patent US20150259688
For at least one entry, the source does not settle the construct or the ends of the probe. Protein sequences can lack the tags named with them.

Target: T1, LL37 (cathelicidin peptide) (Homo sapiens) (UniProt P49913)
T1 sequence (looked up): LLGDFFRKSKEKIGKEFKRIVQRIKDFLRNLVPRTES
Test: activity in cells
Conditions: 5 uM aptamer with 10 uM LL37 + human gDNA in pDC culture; IFN-alpha production greatly decreased (ELISA); purified recombinant protein; single-stranded DNA

ACTGGGTCTCACCATCGAAAATCGAAATGACTAAAAGGCC [SEQ7 (Apta#222)]
functional effect of the aptamer: active
